PubChem BioAssay AID1259405 – NCATS, 2018
The deposit covers about 50,000 reagents; below is a random part of them. Of all reagents, about 4,000 (8%) got an active call. 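Mouse siRNA library applied to hamster cells; one well for each siRNA.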 A number with no mark means an inactive call. Reagents against one gene are numbered here.

Purpose: 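Mouse-designed siRNAs used to find CHO productivity engineering targets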 (primary screen)
Cell system: Chinese hamster CHO-K1 ovary cells with stable secreted eGFP expression
Knock-down reagent: single siRNA against mouse genes, 0.8 pmol siRNA per well (2 µl of 400 nM stock)
Timing: 3 days
Read-out: 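Per-well intracellular GFP measured by laser scanning cytometry, plus viability from ATP luminescence, each relative to plate median of non-targeting control wells, in %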
Scale: GFP, % of control: higher = more GFP per well, higher productivity; viability (ATP), % of control: higher = more viable cells (more ATP)
Hit rule: 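a knock-down is called active if GFP reaches 120% or more of non-targeting control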

| gene symbol | reagent no. | GFP, % of control | viability (ATP), % of control |
| --- | --- | --- | --- |
| Pln (phospholamban) | 1 | 76.4 | 49.2 |
| Pln (phospholamban) | 2 | 98.4 | 57.6 |
| Pln (phospholamban) | 3 | 98.7 | 70 |
| Or10ak12 (olfactory receptor family 10 subfamily AK member 12) | 1 | 67.9 | 60.2 |
| Or10ak12 (olfactory receptor family 10 subfamily AK member 12) | 2 | 112 | 83.7 |
| Or10ak12 (olfactory receptor family 10 subfamily AK member 12) | 3 | 103 | 77.8 |
| Chst11 (carbohydrate sulfotransferase 11) | 1 | 109 | 61 |
| Chst11 (carbohydrate sulfotransferase 11) | 2 | 66.2 | 99 |
| Chst11 (carbohydrate sulfotransferase 11) | 3 | 87 | 88.2 |
| Nlgn2 (neuroligin 2) | 1 | 89 | 77.3 |
| Nlgn2 (neuroligin 2) | 2 | 91.6 | 81.7 |
| Nlgn2 (neuroligin 2) | 3 | 100 | 116 |
| Cdv3 | 1 | 78.5 | 86.7 |
| Cdv3 | 2 | 68.1 | 61.6 |
| Cdv3 | 3 | 88.1 | 102 |
| Slc7a11 | 1 | 92.9 | 64 |
| Slc7a11 | 2 | 62.2 | 73.1 |
| Slc7a11 | 3 | 88.3 | 77.1 |
| Cutal (cutA divalent cation tolerance homolog-like) | 1 | 54.1 | 46 |
| Cutal (cutA divalent cation tolerance homolog-like) | 2 | 119 | 75.6 |
| Cutal (cutA divalent cation tolerance homolog-like) | 3 | 81.8 | 69.3 |
| Tmprss11d (transmembrane protease, serine 11d) | 1 | 67.3 | 89.1 |
| Tmprss11d (transmembrane protease, serine 11d) | 2 | 34.2 | 46.5 |
| Tmprss11d (transmembrane protease, serine 11d) | 3 | 75.7 | 72.7 |
| Inpp5f (inositol polyphosphate-5-phosphatase F) | 1 | 82.6 | 65.4 |
| Inpp5f (inositol polyphosphate-5-phosphatase F) | 2 | 69.5 | 55.5 |
| Inpp5f (inositol polyphosphate-5-phosphatase F) | 3 | 65.7 | 92.7 |
| Abcc12 (ATP-binding cassette, sub-family C member 12) | 1 | 103 | 116 |
| Abcc12 (ATP-binding cassette, sub-family C member 12) | 2 | 81.5 | 50.2 |
| Abcc12 (ATP-binding cassette, sub-family C member 12) | 3 | 85.4 | 74.3 |
| Acvrl1 (activin A receptor, type II-like 1) | 1 | 68.8 | 91.9 |
| Gas6 (growth arrest specific 6) | 1 | 94.5 | 78.8 |
| Gas6 (growth arrest specific 6) | 2 | 152 (active) | 128 |
| Gas6 (growth arrest specific 6) | 3 | 82.7 | 94.4 |
| Or52a5b (olfactory receptor family 52 subfamily A member 5B) | 1 | 87.5 | 65.4 |
| Or52a5b (olfactory receptor family 52 subfamily A member 5B) | 2 | 96.2 | 51.9 |
| Or52a5b (olfactory receptor family 52 subfamily A member 5B) | 3 | 128 (active) | 99.9 |
| Gja5 (gap junction protein, alpha 5) | 1 | 33.6 | 48.3 |
| Gja5 (gap junction protein, alpha 5) | 2 | 95.6 | 88.6 |
| Gja5 (gap junction protein, alpha 5) | 3 | 115 | 115 |
| Krtap3-2 (keratin associated protein 3-2) | 1 | 60.5 | 71.1 |
| Krtap3-2 (keratin associated protein 3-2) | 2 | 43.5 | 55.3 |
| Krtap3-2 (keratin associated protein 3-2) | 3 | 42 | 60.6 |
| Far1 (fatty acyl CoA reductase 1) | 1 | 48.8 | 74 |
| Far1 (fatty acyl CoA reductase 1) | 2 | 62.5 | 58.7 |
| Far1 (fatty acyl CoA reductase 1) | 3 | 52.5 | 67.1 |
| Fga (fibrinogen alpha chain) | 1 | 96.6 | 118 |
| Fga (fibrinogen alpha chain) | 2 | 70.8 | 85.4 |
| Psmf1 (proteasome (prosome, macropain) inhibitor subunit 1) | 1 | 37.1 | 66.8 |
| Psmf1 (proteasome (prosome, macropain) inhibitor subunit 1) | 2 | 83.3 | 72.5 |
| Psmf1 (proteasome (prosome, macropain) inhibitor subunit 1) | 3 | 91.6 | 82.9 |
| Stambp (STAM binding protein) | 1 | 105 | 115 |
| Stambp (STAM binding protein) | 2 | 97.3 | 96.9 |
| Hspd1 (heat shock protein 1 (chaperonin)) | 1 | 90.6 | 105 |
| Hspd1 (heat shock protein 1 (chaperonin)) | 2 | 90.5 | 80.2 |
| Hspd1 (heat shock protein 1 (chaperonin)) | 3 | 82.6 | 73.2 |
| Pramel6 (PRAME like 6) | 1 | 89.2 | 68.8 |
| Pramel6 (PRAME like 6) | 2 | 78.4 | 84.6 |
| Pramel6 (PRAME like 6) | 3 | 61.3 | 50.9 |

Limited to “GFP, % of control”, for 9 of the entries above:
Krtap3-2 (keratin associated protein 3-2) #2: 43.5
Krtap3-2 (keratin associated protein 3-2) #3: 42
Far1 (fatty acyl CoA reductase 1) #1: 48.8
Far1 (fatty acyl CoA reductase 1) #2: 62.5
Far1 (fatty acyl CoA reductase 1) #3: 52.5
Fga (fibrinogen alpha chain) #1: 96.6
Fga (fibrinogen alpha chain) #2: 70.8
Psmf1 (proteasome (prosome, macropain) inhibitor subunit 1) #1: 37.1
Psmf1 (proteasome (prosome, macropain) inhibitor subunit 1) #2: 83.3
